Reference: PubChem BioAssay AID540256 (National Center for Advancing Translational Sciences (NCATS), 2011)
The whole screen tested about 300,000 compounds, of which about 3,700 (1.2%) were called active. This list was built around the results that the source calls inconclusive (neither active nor inactive); the mix of calls is not that of the screen. The call rests on the fitted dose curve; tested in HEK293 cells. Potencies of inconclusive entries are doubtful fits and often do not repeat.

experiment: qHTS for Inhibitors of binding or entry into cells for Lassa Virus; conditions: Lassa virus pseudotype entry inhibition, cell reporter; activity change, negative = inhibition: at 37.9 µM (top of the series) unless noted; further: nearly all actives have a fitted effect of over 50% in size
On the % scale 0 is the no-effect control and ±100 the full control effect; potency means the concentration at half of the fitted maximal effect.

**Q.** With CCC(=O)Nc1cccc(-c2nnc(-c3ccccc3)o2)c1 as the compound, how does the Potency read?
**A.** inconclusive: 20 µM [inhibitor, single point]

**Q.** With CCSc1nnc(NC(=O)NC(C)(C(F)(F)F)C(F)(F)F)s1 as the compound, how does the Potency read?
**A.** inconclusive: 29.1 µM [inhibitor, single point]

**Q.** Which Potency does the source give for C=CCNc1nc(-c2ccccc2)c(C(=O)OCC)cc1C#N here?
**A.** inconclusive: 7.94 µM [inhibitor, partial curve]

**Q.** For COc1ccc(CCNC(=O)c2cc(-c3ccc(Cl)c(Cl)c3)oc2C)cc1, which Potency is on record?
**A.** inconclusive: 17.8 µM [inhibitor, single point]

**Q.** For O=C(O)CC(=O)Nc1cc(Cl)ccc1O, which “activity change, negative = inhibition” value is on record?
**A.** inactive: 12.1%

**Q.** Which Potency does the source give for COc1ccc(OC)c(N(CC(=O)Nc2cccc(C(F)(F)F)c2)S(C)(=O)=O)c1 here?
**A.** inconclusive: 3.16 µM [inhibitor, partial curve, poor fit]

**Q.** Which Potency does the source give for CCN(CC)c1ncn(Cc2c(Cl)cccc2Cl)c2ncnc1-2 here?
**A.** inconclusive: 35.5 µM [inhibitor, single point]

**Q.** Which Potency does the source give for Cc1ccc(C)c(S(=O)(=O)N2CCCC2CNC(=O)C(=O)NCCc2ccco2)c1 (stereo not drawn) here?
**A.** inconclusive: 8.91 µM [inhibitor, partial curve, poor fit]

**Q.** For Cc1ccccc1C(=O)Nc1cccc(NC(=O)c2ccc(-c3ccc(Br)cc3)o2)c1, which Potency is on record?
**A.** inconclusive: 35.5 µM [inhibitor, partial curve, poor fit]

**Q.** For O=C1C2C3C=CC(CC3)C2C(=O)N1c1ccc([N+](=O)[O-])cc1 (stereo not drawn), which Potency is on record?
**A.** inconclusive: 35.5 µM [inhibitor, single point]

**Q.** Which “activity change, negative = inhibition” value does the source give for O=C(/C=C/c1ccc2c(c1)OCO2)c1ccccn1 here?
**A.** inactive: 4.8% [at 46.1 µM]

**Q.** Which Potency does the source give for CC1=NN(C(=O)Cn2nc([N+](=O)[O-])cc2C)C(O)(C(F)(F)F)C1 (stereo not drawn) here?
**A.** inconclusive: 6.51 µM [activator, partial curve, poor fit]

**Q.** With CCCOc1ccc2ccccc2c1/C=N/n1c(C)nnc1-n1nc(C)cc1C as the compound, how does the Potency read?
**A.** inconclusive: 7.08 µM [inhibitor, partial curve, poor fit]

**Q.** Which Potency does the source give for Cc1cccc(N2CCN(C(=O)CCn3c(=O)c4cccn4c4cccnc43)CC2C)c1 (stereo not drawn) here?
**A.** active: 7.94 µM

**Q.** Which “activity change, negative = inhibition” value does the source give for O=C(Nc1cccc(Cl)c1)c1cc2c(=O)[nH]c3ccccc3c2s1 here?
**A.** inactive: 11.1% [at 46.1 µM]

**Q.** For Cn1c(=O)n(/N=C/c2ccccc2)c2ccccc21, which “activity change, negative = inhibition” value is on record?
**A.** inactive: 27.7%

**Q.** For Cc1ccc(-c2nc(C)c(CCNS(=O)(=O)c3ccc(F)c(C(F)(F)F)c3)s2)cc1, which Potency is on record?
**A.** inconclusive: 35.5 µM [inhibitor, single point]

**Q.** Which Potency does the source give for O=C(Nc1cccc(C(F)(F)F)c1)c1cc2ccc3cccnc3c2[nH]1 here?
**A.** inconclusive: 14.1 µM [activator, single point]
